In article PMC4758748:
No constants are given. Whether binding was seen depends on the method and setting. In cells and extracts the contact can be indirect. Here binding means that the protein was enriched with, or labelled near, the bait; the list need not be complete. For some assays here: Sequences can lack the tags named with a protein.

By UniProt entry, the sequences of proteins in these tests, tags left out.
UniProt P08964: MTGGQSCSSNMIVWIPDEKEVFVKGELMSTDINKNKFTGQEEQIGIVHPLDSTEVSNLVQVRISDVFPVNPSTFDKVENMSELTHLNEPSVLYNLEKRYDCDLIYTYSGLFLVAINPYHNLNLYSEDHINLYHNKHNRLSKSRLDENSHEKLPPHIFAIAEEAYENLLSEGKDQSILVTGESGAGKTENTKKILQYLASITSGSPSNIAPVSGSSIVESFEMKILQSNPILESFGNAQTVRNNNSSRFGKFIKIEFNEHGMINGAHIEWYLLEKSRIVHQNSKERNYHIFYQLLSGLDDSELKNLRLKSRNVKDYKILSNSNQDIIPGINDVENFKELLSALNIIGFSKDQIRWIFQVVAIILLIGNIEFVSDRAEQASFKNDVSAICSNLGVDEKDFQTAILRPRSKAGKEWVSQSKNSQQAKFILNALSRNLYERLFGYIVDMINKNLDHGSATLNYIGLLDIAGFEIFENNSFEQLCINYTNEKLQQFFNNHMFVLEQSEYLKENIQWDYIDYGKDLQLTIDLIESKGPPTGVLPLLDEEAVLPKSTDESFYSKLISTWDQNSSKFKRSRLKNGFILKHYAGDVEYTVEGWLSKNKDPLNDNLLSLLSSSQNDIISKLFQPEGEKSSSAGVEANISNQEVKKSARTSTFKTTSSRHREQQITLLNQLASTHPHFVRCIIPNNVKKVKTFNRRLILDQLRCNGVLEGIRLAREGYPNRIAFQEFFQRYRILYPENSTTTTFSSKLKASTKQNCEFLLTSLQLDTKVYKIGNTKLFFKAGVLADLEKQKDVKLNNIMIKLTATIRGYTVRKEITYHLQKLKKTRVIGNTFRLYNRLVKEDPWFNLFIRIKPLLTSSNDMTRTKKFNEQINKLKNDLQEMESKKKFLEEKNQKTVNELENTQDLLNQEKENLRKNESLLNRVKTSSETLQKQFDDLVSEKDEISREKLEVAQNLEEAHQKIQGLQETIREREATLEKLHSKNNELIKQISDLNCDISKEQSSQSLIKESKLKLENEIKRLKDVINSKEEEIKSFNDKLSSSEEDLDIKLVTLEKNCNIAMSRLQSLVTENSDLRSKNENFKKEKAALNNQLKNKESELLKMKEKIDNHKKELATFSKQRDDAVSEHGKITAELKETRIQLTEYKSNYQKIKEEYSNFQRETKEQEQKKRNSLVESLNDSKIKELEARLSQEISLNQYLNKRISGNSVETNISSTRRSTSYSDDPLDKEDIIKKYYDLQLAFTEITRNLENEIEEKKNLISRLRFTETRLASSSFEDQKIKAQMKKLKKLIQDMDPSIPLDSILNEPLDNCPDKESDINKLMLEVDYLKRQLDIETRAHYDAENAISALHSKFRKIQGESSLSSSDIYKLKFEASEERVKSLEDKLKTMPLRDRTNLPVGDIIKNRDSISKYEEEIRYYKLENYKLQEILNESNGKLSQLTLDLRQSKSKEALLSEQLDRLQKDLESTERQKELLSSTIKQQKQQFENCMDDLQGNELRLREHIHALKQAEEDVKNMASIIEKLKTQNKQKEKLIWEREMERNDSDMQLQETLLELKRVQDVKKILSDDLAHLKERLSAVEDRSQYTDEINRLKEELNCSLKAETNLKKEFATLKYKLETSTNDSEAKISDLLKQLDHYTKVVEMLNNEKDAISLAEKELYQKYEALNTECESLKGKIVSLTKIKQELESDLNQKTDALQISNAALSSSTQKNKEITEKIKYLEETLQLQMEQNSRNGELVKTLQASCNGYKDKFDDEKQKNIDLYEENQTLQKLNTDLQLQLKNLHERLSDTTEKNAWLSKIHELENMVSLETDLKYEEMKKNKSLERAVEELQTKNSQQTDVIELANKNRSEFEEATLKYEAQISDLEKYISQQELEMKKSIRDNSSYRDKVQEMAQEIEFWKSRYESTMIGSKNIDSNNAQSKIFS

T1: Chs2-9MYC (S. cerevisiae) (UniProt P14180)
T1 sequence: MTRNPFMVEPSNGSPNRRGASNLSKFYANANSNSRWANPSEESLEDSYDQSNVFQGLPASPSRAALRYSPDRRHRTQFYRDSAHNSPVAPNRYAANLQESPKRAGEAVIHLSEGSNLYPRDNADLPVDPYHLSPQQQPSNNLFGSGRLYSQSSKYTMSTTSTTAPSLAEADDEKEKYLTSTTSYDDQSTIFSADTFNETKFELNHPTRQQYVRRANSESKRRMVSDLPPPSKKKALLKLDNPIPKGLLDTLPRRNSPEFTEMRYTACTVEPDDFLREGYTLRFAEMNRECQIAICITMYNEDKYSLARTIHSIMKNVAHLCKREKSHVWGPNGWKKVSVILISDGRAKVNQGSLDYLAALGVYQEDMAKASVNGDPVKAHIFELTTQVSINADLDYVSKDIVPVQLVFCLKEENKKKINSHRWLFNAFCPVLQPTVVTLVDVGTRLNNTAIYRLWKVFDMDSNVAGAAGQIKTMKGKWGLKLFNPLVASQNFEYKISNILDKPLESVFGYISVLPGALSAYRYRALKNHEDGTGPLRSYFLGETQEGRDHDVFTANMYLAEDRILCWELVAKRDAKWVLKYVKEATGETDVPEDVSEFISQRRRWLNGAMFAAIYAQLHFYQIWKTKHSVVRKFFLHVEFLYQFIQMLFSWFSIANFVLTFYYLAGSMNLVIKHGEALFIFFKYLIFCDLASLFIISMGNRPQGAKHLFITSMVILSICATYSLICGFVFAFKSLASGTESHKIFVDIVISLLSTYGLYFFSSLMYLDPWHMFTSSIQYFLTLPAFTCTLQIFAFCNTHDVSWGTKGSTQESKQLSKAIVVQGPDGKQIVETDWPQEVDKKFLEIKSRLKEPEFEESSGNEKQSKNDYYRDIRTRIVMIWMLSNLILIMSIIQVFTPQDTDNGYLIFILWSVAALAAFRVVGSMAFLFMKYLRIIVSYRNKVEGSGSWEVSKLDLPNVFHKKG

T2: Inn1-TAP (S. cerevisiae) (UniProt P53901)
T2 sequence: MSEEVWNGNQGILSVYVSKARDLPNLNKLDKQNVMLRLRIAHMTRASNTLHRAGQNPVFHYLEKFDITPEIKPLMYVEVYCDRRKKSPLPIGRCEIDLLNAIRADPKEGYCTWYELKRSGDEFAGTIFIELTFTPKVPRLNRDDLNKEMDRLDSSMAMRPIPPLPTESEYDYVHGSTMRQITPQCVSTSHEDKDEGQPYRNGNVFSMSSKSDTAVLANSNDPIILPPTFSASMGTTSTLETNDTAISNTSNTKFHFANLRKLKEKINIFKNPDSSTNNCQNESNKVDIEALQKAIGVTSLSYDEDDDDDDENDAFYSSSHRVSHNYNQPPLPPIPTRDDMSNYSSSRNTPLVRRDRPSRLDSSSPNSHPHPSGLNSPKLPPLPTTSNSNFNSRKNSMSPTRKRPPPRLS


Columns and labels:
[1] = biological target: T1, Chs2-9MYC (S. cerevisiae); test: affinity purification with mass spectrometry; two steps: five-litre culture, extract 105 minutes after release from G1; Inn1-TAP on IgG beads, released with TEV protease, then immunoprecipitation of Chs2-9MYC; gel lanes cut into 10 bands, mass spectrometry; control strain expressing the TAP tag alone
Inn1-TAP (S. cerevisiae) = biological target: T2, Inn1-TAP (S. cerevisiae); test: as above

Molecule | binding [1] | binding (Inn1-TAP (S. cerevisiae))
Cyk3 (endogenous, in yeast extract) (protein, UniProt Q07533 1-885) MATNLTSLKPPFKVKARYGWSGQTKGDLGFLEGDIMEVTRIAGSWFYGKLLRNKKCSGYFPHNFVILLEERLNSSTENGRQPSKIVESFEKSNKVVIPPVPSRYSDERPRPKKKLSSSMPNSPKKPVDSLTKARKAKSKEMVNEKNIYNTQSSRHHNNSAPNLPLASHSKPQVRNFEESMNNPLPPLPPLPDLDNMRKTDKRAPKKSYSANDLHMARSSREYNYYKDNQKFYDGFIPEKRYSLEEDSISSGLFSNSQYLNDSACSSENSFALMSDFSATSAGSFARHKYAQSFSDSLQRSQNANGCSTKINDSQEFGDSNASSRNGKMGDILRKIIIPKRNTNIYSSSVSSPKSPKAYPKLPDIQNLNLSATPDEARDWIAVKCHLNRARTLTKYDKHPRYMRALEENRDLILHPQDSIYNGLNTNEVKGNTKPGLVDVELAELNIEYIDKMTWKRCIRDGTMTLDSWAQTTFSARYSTVLEKLRGIYIFCTEMFALTDDNGTSDFSAEPQNLEKILYRKHCTPYELTWLFKKLANSLGITCEIVIGFLKTPSAINWEFKYNHCWLRILVNKEWRFIDVILGNVTNPIHEFVNNRKIKKAENSYFLMAPLEMIYTHIPPREFEQHIVPSIDQLSALYLPLVFPSFFKNELKLYKFSTALSFLEDSEIYECSLEIPNDVEVFASVVIPTDNEEASSAYRNMELALTQIKKQKAESGRRIALIKAVLPPNVNKGSLYIHSGVRGTQTSIANIHPLSMMVPLTHKGSNMKYEFVIKIPSESIQKIELYIVEPQSRYLFVGNEYSFEVIQSPSDGIVYSSDEGPNQNRKQPMAIKSPSGRVHELVKSDPHFPYGTWKGSIKIKEPGVWSALVIADSGIGWSVFAEWLCV | binds | binds
Iqg1 (endogenous, in yeast extract) (protein, UniProt Q12280 1-1495) MTAYSGSPSKPGNNNSYLNRYVENLGTNVTPPLRPQSSSKINSSLNIASPSHLKTKTSASNSSATILSKKVESSVSKLKPSLPNKLVGKYTVDLSNYSKIELRYYEFLCRVSEVKIWIEAVIEEALPSEIELCVGDSLRNGVFLAKLTQRINPDLTTVIFPAGDKLQFKHTQNINAFFGLVEHVGVPDSFRFELQDLYNKKNIPQVFETLHILISMINKKWPGKTPALTNVSGQISFTKEEIAACKKAWPRIRDFKSLGTNINTAPASPEEPKEKRSGLIKDFNKFERPNIPVEEILITPRKNITDANCSDFSNTPSPYNEAPKMSNLDVVVEKRKFTPIEPSLLGPTPSLEYSPIKNKSLSYYSPTISKYLTYDTEFYTRRSRAREEDLNYYQTFKYSPSHYSPMRRERMTEEQFLEKVVQLQNICRGVNTRFNLYIQKRLLNLFEQDILRFQACLRGNKFRVLSSMYLPIRRAKIDVPHVEAIQSRIKGSRIRYKYDKLKFTLSRFSCTVELLQAYCRSKLLKTTVNTKLNDIEISHYPLTKLQSYMRASYVRKKVMSLNTKLNDERESIMKFSAIIRGNVVRCSEDAILSAVHDVHKENISKLQSLIRGIFTRSCLASIIYSLGKENCNIIQLSACIRGNAVRHKVQSLFAPENNLSETVHDLQGLVRGILVRYTLDLVDDIVEYNNLALFQAFSRGALVRESLDQKSSFYKRNVRSVIMIQSWIRKSLQRSAYLELLDCPNPSLWAVKKFVHLLNGTATIEEVQNQLESCQASLDSENMKKERLLKSIRQQLNINGVLDKFGLLKDKDHELGISDSTIPKSKYQKYEKLFYMLQVDPSYWKLLYLKEPEFVAKNVYMTFGTVNQRMNDRERSYFTRFVCEMLQNAINEAPSIESFLDNRSQFWQTILQDFLRRESPEFFSIIVPVLDYLSDPVVDFESDPYKIYQEIHGFSSPQHCSPVDDASTKNKFIDNLRCLWHAIEMVAEIYTRKVHTIPVEIRYLCTKIFCYAADKNIEEIDSLRAISSILVNVFVSEYLVNREYYGYKDSNVQKNNQKIDILMKSLATVFEIKNFDGFLDPLNQYANEIKPHIKDVLYNVLVDPEYEQEGDRLIYLDMVSPSPKLELLTEKVLEISGKFEEYLNEFPEADILHDILEKNLDNSSFPRSGRVTLELDASAYRFLVSDDKMRKIYDQVKRAFVYMMQIEDVDTNLYDLSISTILPQDEPNFANFLEQNPKIRDDPMIQKLKPLKYFTLKNVTLKKIHELESTGTFCSSDNKLQNFLNDIANTIKNPNYAIDYVTQEIYITKETLTKISEMNHSLDIELSRLKKHVDHTIKDFQKAKDFSPVHKSKFGNFKNAVKKVQGRERSELQGMKFKWNTKQLYERGVLKTIRGEKLAELTVKVFGSSGPKFPDIIFKISTSDGSRFGIQMIDKRKGPDKRYSDDVDSFSFKDLIKTQVEPKIETWKLFHSNVVVNNSQLLHLIVSFFYKRNAL | binds | binds

Other lines, results leading:

binding [1] | binding (Inn1-TAP (S. cerevisiae)) | Molecule
binds | binds | Myo1 (endogenous, in yeast extract) (from UniProt P08964 1-1928)
binds | binds | Hof1 (endogenous, in yeast extract) (protein, UniProt Q05080 1-669) MSYSYEACFWDPNDNGVNILLGHISQGIRSCDSMILFFKQRSELEKDYARRLGAITGKLDKDIGTNMDYGKLNETFNVVLSVEKARAQSHSKQSEILFRQIYTDTKAFAANLQARYTTLSGKIERLRMDKFNKKKGCEVLQKKLQDAQIRFRDLQLNENNMIGAKRVEHNKRELLKWESNSQEYKVQLDVLKQEYKASQKFWIHEWAQLSCELQEMENARISFLQSKLQQFATSSMETYILEQTKMDMLTNHLNSFTAADEISTFSKENGTGRLKHKTSKGDMNSSANWAQMSSISTTSKKTESYMDNIRKLSSQLKETENKRKLASIDKYEKPLPSPEVTMATQFRNSTPVIRNETKVVANPTLSLRSSPVQLQSNVDDSVLRQKPDKPRPIVGEEQLKPDEDSKNPDEKGLMVHKRNQSLSSPSESSSSNPTDFSHIKKRQSMESMTTSVSSMANSIDDSQRFAKSWNSSNRKRKSMSHLQVPSSASSRSDDGGRTPNSAHNLNEDDYNTRRDTSTSTILFKPPVAVRGTSRGHTHRQSMIMQDSSNPIEDALYEMERIQSSSKPGTKTGNIMDERGVVRDRGITVTLPIVTSEGFPVIEYAKAMYPLIGNEAPGLANFHKGDYLLITEIVNKDWYKGEVYDNDRIDRNHRIGLIPYNFIQLLHQGL
